Patent US20260242759A1, “GQ/11 Protein Peptidomimetics” (Vrije Universiteit Brussel, priority 2022, published 2026)
For at least one compound, name, drawing or mass did not settle the structure. Some entries repeat one wording, which the source may state once for all of them. Positions of bridges follow the written chain, without caps; N, C: chain ends. Non-standard residues stand in square brackets, D forms with d. Residues, ends and D or L forms follow the SMILES beside them. Triazole bridges read from a SMILES are 1,4-linked. Lys(N3) = [N-]=[N+]=NCCCC[C@H](N)C(=O)O; Pra = C#CC[C@H](N)C(=O)O

Protein sequences, listed by entry. Tags and fused reporters are not part of them.
UniProt Q92847, whole entry: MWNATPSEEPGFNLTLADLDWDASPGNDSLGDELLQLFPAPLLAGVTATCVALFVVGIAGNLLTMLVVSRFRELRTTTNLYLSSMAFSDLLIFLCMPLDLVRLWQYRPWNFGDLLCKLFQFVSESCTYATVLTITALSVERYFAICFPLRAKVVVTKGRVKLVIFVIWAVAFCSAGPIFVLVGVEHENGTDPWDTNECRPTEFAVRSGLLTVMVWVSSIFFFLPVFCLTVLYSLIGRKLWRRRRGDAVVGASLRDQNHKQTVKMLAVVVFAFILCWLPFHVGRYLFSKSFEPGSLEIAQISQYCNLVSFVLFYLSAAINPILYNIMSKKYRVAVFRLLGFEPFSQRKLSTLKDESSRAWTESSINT

Biological target: T1, ghrelin receptor (Homo sapiens, UniProt Q92847)
T1 construct: expressed in transfected cells; host or cells: HEK293 cells overexpressing the ghrelin receptor
Test: IP-One Gq assay
Format: cell-based
Conditions: varying MK0677; for receptor activation / fluorescence ratio (665 nm/620 nm) vs absence of peptidomimetic: peptidomimetic at 10 μM, FIG. 8

Compound | receptor activation / fluorescence ratio (665 nm/620 nm) vs absence of peptidomimetic | fluorescence ratio (665 nm/620 nm) vs absence of peptidomimetic (peptidomimetic at 5 and 10 μM, FIG. 9)
CC[C@H](C)[C@H](NC(=O)[C@@H]1CCCCn2cc(nn2)C[C@H](NC(=O)[C@H](C)NC(=O)[C@H](Cc2ccccc2)NC(=O)[C@H](CCCNC(=N)N)NC(=O)[C@H](CCCNC(=N)N)NC(=O)[C@H](CCCNC(=N)N)NC(=O)[C@@H](N)CCCNC(=N)N)C(=O)N[C@@H](C(C)C)C(=O)N[C@@H](CCCCN)C(=O)N[C@@H](CC(=O)O)C(=O)N1)C(=O)N[C@@H](CC(C)C)C(=O)N[C@@H](CCC(N)=O)C(=O)N[C@@H](CC(C)C)C(=O)N[C@@H](CC(N)=O)C(=O)N[C@@H](CC(C)C)C(=O)N[C@@H](CCCCN)C(=O)N[C@@H](CCC(=O)O)C(=O)N[C@@H](Cc1ccc(O)cc1)C(=O)N[C@@H](CC(N)=O)C(=O)N[C@@H](CC(C)C)C(=O)N[C@H](C(=O)O)C(C)C [SBL-GQ-14] (H-RRRRFA[Pra]VKD[Lys(N3)]ILQLNLKEYNLV-OH; triazole 7-11) | Almost no difference in receptor activation | –
CC[C@H](C)[C@H](NC(=O)[C@@H]1CCCCn2cc(nn2)C[C@H](NC(=O)[C@H](C)NC(=O)[C@H](Cc2ccccc2)NC(=O)[C@H](CCCNC(=N)N)NC(=O)[C@H](CCCNC(=N)N)NC(=O)[C@H](Cc2c[nH]c3ccccc23)NC(=O)[C@H](CCCNC(=N)N)NC(=O)[C@H](CCCNC(=N)N)NC(=O)[C@H](Cc2c[nH]c3ccccc23)NC(=O)[C@H](Cc2c[nH]c3ccccc23)NC(=O)[C@H](CCCNC(=N)N)NC(=O)[C@@H](N)CCCNC(=N)N)C(=O)N[C@@H](C(C)C)C(=O)N[C@@H](CCCCN)C(=O)N[C@@H](CC(=O)O)C(=O)N1)C(=O)N[C@@H](CC(C)C)C(=O)N[C@@H](CCC(N)=O)C(=O)N[C@@H](CC(C)C)C(=O)N[C@@H](CC(N)=O)C(=O)N[C@@H](CC(C)C)C(=O)N[C@@H](CCCCN)C(=O)N[C@@H](CCC(=O)O)C(=O)N[C@@H](Cc1ccc(O)cc1)C(=O)N[C@@H](CC(N)=O)C(=O)N[C@@H](CC(C)C)C(=O)N[C@H](C(=O)O)C(C)C [SBL-GQ-25] (H-RRWWRRWRRFA[Pra]VKD[Lys(N3)]ILQLNLKEYNLV-OH; triazole 12-16) | – | even stronger decrease in fluorescence ratio
CC[C@H](C)[C@H](NC(=O)[C@@H]1CCCCn2cc(nn2)C[C@H](NC(=O)[C@H](C)NC(=O)[C@H](Cc2ccccc2)NC(=O)[C@H](CCCCN)NC(=O)[C@H](CCCCN)NC(=O)[C@@H](N)CCCCN)C(=O)N[C@@H](C(C)C)C(=O)N[C@@H](CCCCN)C(=O)N[C@@H](CC(=O)O)C(=O)N1)C(=O)N[C@@H](CC(C)C)C(=O)N[C@@H](CCC(N)=O)C(=O)N[C@@H](CC(C)C)C(=O)N[C@@H](CC(N)=O)C(=O)N[C@@H](CC(C)C)C(=O)N[C@@H](CCCCN)C(=O)N[C@@H](CCC(=O)O)C(=O)N[C@@H](Cc1ccc(O)cc1)C(=O)N[C@@H](CC(N)=O)C(=O)N[C@@H](CC(C)C)C(=O)N[C@H](C(=O)O)C(C)C [SBL-GQ-13] (H-KKKFA[Pra]VKD[Lys(N3)]ILQLNLKEYNLV-OH; triazole 6-10) | Almost no difference in receptor activation | –
